{
  "source": "PubChem BioAssay AID2685",
  "about": "(National Center for Advancing Translational Sciences (NCATS), 2010)",
  "note": "The whole screen tested about 320,000 compounds, of which about 2,100 (0.66%) were called active. This list was built around the results that the source calls inconclusive (neither active nor inactive); the mix of calls is not that of the screen. Calls come from the whole dose curve; as a rule, active = well fitted inhibition curve with a large enough effect in the signal ratio, with a control signal flat (not every such curve was filed as active); inconclusive = small, poorly fitted or top-dose-only effect, or effect the other way, or a change in a side signal; inactive = flat fitted curve, though single readings scatter; the % refers to the signal ratio. Potencies beside an inconclusive call are fits to weak or partial responses and may not hold up. % is set by controls: 0 for no effect and ±100 for the full control effect; potency is the fitted concentration of half-maximal effect.",
  "data": [
    {"experiment": "qHTS Assay for Lipid Storage Modulators in Drosophila S3 Cells", "settings": "BODIPY lipid droplet fluorescence, 18-24 h, cells fed with added oleic acid; lipid storage change, negative = inhibition: at 46.1 µM (top of the series) unless noted", "summary_of_the_method": "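Laser-scanning cytometry quantifies lipid droplet accumulation (500–530 nm total intensity; droplet/cell object ratio) in oleic acid-fed (400 uM added) Drosophila S3 cells treated with a concentration series. 20 uM Triacsin C defined 100% inhibition.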", "values": [
      {"smiles": "CCOC(=O)N1CCN(C(=O)CCC2CCCC2)CC1", "lipid storage change, negative = inhibition": "inconclusive: 22.8% [at 9.22 µM]"},
      {"smiles": "COc1ccccc1-n1nnnc1SCC(=O)NCC1CCCO1", "note": "(centres undefined)", "lipid storage change, negative = inhibition": "inconclusive"},
      {"smiles": "COc1ccc(C2(c3ccc(OC)cc3)NC(=O)N(CC(=O)Nc3ccc(C(N)=O)cc3)C2=O)cc1", "lipid storage change, negative = inhibition": "inconclusive: -16.9%"},
      {"smiles": "CC(C)c1ccccc1OCC(=O)NCC(c1cccs1)N1CCOCC1", "note": "(centres undefined)", "Potency": "inconclusive: 0.461 µM [cytotoxic, full curve, poor fit]"},
      {"smiles": "Cc1nn(CC(=O)Nc2sc3c(c2C#N)CCC(C(C)(C)C)C3)c(C)c1[N+](=O)[O-]", "note": "(centres undefined)", "lipid storage change, negative = inhibition": "inconclusive: -2.09%"},
      {"smiles": "COc1ccccc1N(CC(=O)NC1CCCCC1)C(=O)Cn1nnc(-c2ccc(C)o2)n1", "lipid storage change, negative = inhibition": "inconclusive: 5.25%"},
      {"smiles": "CCOC(=O)c1c(S(=O)(=O)NCC(=O)Nc2ccc(OC)cc2)c(C)n(C)c1C", "lipid storage change, negative = inhibition": "inactive: 23.4%"},
      {"smiles": "CCOCCCNC(=O)c1cc2c(=O)[nH]c3ccccc3c2s1", "lipid storage change, negative = inhibition": "inconclusive: 11.7%"},
      {"smiles": "CSc1ccc(/C=N/N(C)S(=O)(=O)c2ccc(C)cc2)cc1", "lipid storage change, negative = inhibition": "inconclusive: -17%"},
      {"smiles": "Cc1cc2n(n1)C(c1ccsc1)Nc1ccccc1-2", "note": "(centres undefined)", "Potency": "inconclusive: 14.6 µM [activator, partial curve]"},
      {"smiles": "COc1ccc(OC)c(S(=O)(=O)ON2C(=O)c3ccccc3C2=O)c1", "lipid storage change, negative = inhibition": "inconclusive: -33%"},
      {"smiles": "CC1CC(C)(C)NC(=S)N1CCC(=O)Nc1ccc2c(c1)OCCO2", "note": "(centres undefined)", "Potency": "inconclusive: 6.51 µM [falling, partial curve, poor fit]"},
      {"smiles": "COc1ccc(CN2C(=O)C(C)=C(C)C2OC)cc1", "note": "(centres undefined)", "lipid storage change, negative = inhibition": "inconclusive: 109%"},
      {"smiles": "CC(C)(C)c1ccc(-n2ncc3c2CCCC3NC(=O)CN2CCCCC2=O)cc1", "note": "(centres undefined)", "Potency": "inconclusive: 29.1 µM [falling, single point]"},
      {"smiles": "C/C(CC(=O)NC12CC3CC(CC(C3)C1)C2)=N\\NC(=O)c1ccc(C)cc1", "lipid storage change, negative = inhibition": "inconclusive: 12.3%"},
      {"smiles": "Cc1ccc(Cn2cccc(NS(C)(=O)=O)c2=O)cc1", "lipid storage change, negative = inhibition": "inconclusive: 69.8%"},
      {"smiles": "O=C(COC(=O)c1ccccn1)NCCCc1ccccc1", "lipid storage change, negative = inhibition": "inconclusive: -11.6%"},
      {"smiles": "COCCCNc1nc2c(-c3ccc(Cl)cc3)nnn2c2ccccc12", "lipid storage change, negative = inhibition": "inconclusive: 22.1%"},
      {"smiles": "CCOC(=O)c1ccc(-c2c(-c3ccc4c(c3)OCO4)noc2-c2ccsc2)cc1F", "lipid storage change, negative = inhibition": "inconclusive: 2.7%"},
      {"smiles": "COc1ccc(-c2nnn(Cc3ccccc3)n2)cc1OC", "lipid storage change, negative = inhibition": "inconclusive: 57.8%"},
      {"smiles": "O=C(/C=C/c1ccc(Cl)c([N+](=O)[O-])c1)Nc1ccc(NC(=O)c2ccco2)cc1", "lipid storage change, negative = inhibition": "inconclusive: -31.1%"},
      {"smiles": "CN(C)/C=N/C(=S)Nc1ccc(Cl)cc1", "Potency": "inconclusive: 29.1 µM [falling, single point]"},
      {"smiles": "CN(Cc1ccccc1F)C(=O)CNC(=O)Cc1cccc2ccccc12", "Potency": "inconclusive: 6.51 µM [activator, partial curve]"},
      {"smiles": "CCCCOc1nc2ccccc2nc1NS(=O)(=O)c1ccc(F)cc1", "lipid storage change, negative = inhibition": "inconclusive: -1.63%"},
      {"smiles": "COc1ccc(NC(C)C(=O)N/N=C/c2ccc([N+](=O)[O-])s2)cc1", "note": "(centres undefined)", "lipid storage change, negative = inhibition": "inconclusive: 4.25%"},
      {"smiles": "O=C(COc1ccc(F)c(Cl)c1)c1ccc[nH]1", "Potency": "inconclusive: 1.64 µM [activator, partial curve]"},
      {"smiles": "Cn1cc(C(=O)N2CCN(c3cccc(Cl)c3)CC2)c(=O)c2cc(S(=O)(=O)N3CCOCC3)ccc21", "Potency": "inconclusive: 3.66 µM [falling, single point]"},
      {"smiles": "c1ccc(C2Nc3ccccc3C3OCCCC23)cc1", "note": "(centres undefined)", "lipid storage change, negative = inhibition": "inconclusive: 47.9%"},
      {"smiles": "Cn1c2ccccc2c2cc(C(=O)O)ccc21", "lipid storage change, negative = inhibition": "inconclusive: 4.16%"},
      {"smiles": "Cc1cccc(-c2nnc(SCC#N)n2Cc2ccccc2)c1", "Potency": "inconclusive: 0.82 µM [activator, single point]"},
      {"smiles": "Cn1ccnc1SCC(=O)Nc1ccc(Oc2ccccc2)cc1", "lipid storage change, negative = inhibition": "inconclusive: 85.5%"},
      {"smiles": "Nc1ncnc2c1ncn2[C@@H]1O[C@H](COS(=O)(=O)O)[C@@H](O)[C@H]1O", "Potency": "inconclusive: 20.6 µM [activator, partial curve]"},
      {"smiles": "COc1ccc2c(=O)c(C(=O)NCc3ccccc3)c[nH]c2c1", "Potency": "inconclusive: 23.1 µM [falling, single point]"},
      {"smiles": "Cc1ccc(OCC(=O)NNC(=O)c2ccccc2OCc2c(C)noc2C)cc1", "Potency": "inconclusive: 25.9 µM [activator, single point]"},
      {"smiles": "N#CCCN(C(=O)COC(=O)CNS(=O)(=O)c1ccc2ccccc2c1)c1ccccc1", "Potency": "inconclusive: 5.17 µM [activator, partial curve, poor fit]"},
      {"smiles": "CC1CCC(N2CCN(C(=O)c3ccccc3F)CC2)CC1", "note": "(centres undefined)", "Potency": "inconclusive: 29.1 µM [activator, single point]"},
      {"smiles": "CCOC(=O)c1c(-c2ccccc2)oc2ccc(OCC(=O)NNC(=O)CCCC(=O)O)cc12", "lipid storage change, negative = inhibition": "inconclusive: 12.7%"},
      {"smiles": "Cc1nc2ccc([N+](=O)[O-])cc2c(=O)n1Cc1cccc(F)c1", "lipid storage change, negative = inhibition": "inconclusive: -16.4%"},
      {"smiles": "CC(CCc1ccccc1)NC(=O)C(Cc1ccccc1)NC(N)=O", "note": "(centres undefined)", "lipid storage change, negative = inhibition": "inconclusive: -14.7%"},
      {"smiles": "CC(C)(CC(=O)O)CC(=O)Nc1cc(C(F)(F)F)cc(C(F)(F)F)c1", "lipid storage change, negative = inhibition": "inconclusive: -40.9%"},
      {"smiles": "O=C(NC1CCCC1)C(c1ccc(Cl)cc1)N1CCOCC1", "note": "(centres undefined)", "lipid storage change, negative = inhibition": "inconclusive: 37.6%"},
      {"smiles": "CC(OC(=O)CCCN=C1NS(=O)(=O)c2ccccc21)C(=O)NC1CCCCC1C", "note": "(centres undefined)", "Potency": "inconclusive: 10.3 µM [falling, single point]"},
      {"smiles": "C[C@@]12CCC[C@@](C)(C(=O)O)C1CC[C@@]13C[C@@H](NCc4ccccc4)[C@@](C)(CCC12)C3", "note": "(some centres undefined)", "lipid storage change, negative = inhibition": "inconclusive: 8.77%"},
      {"smiles": "O=C1C2C3C=CC(C3)C2C(=O)N1c1ccc2ccccc2c1", "note": "(centres undefined)", "Potency": "inconclusive: 29.1 µM [falling, single point]"},
      {"smiles": "O=C(COC(=O)c1ccc2c(c1)OCCO2)NC1CCCCC1", "lipid storage change, negative = inhibition": "inconclusive: 30.3%"},
      {"smiles": "Nn1c(=O)c2ccccc2n2c(SCc3ccc(C(F)(F)F)cc3)nnc12", "Potency": "inconclusive: 0.0046 µM [activator, full curve, poor fit]"},
      {"smiles": "CC1=C(C(=O)OC(C)C)C(c2cccs2)n2ncnc2N1", "note": "(centres undefined)", "lipid storage change, negative = inhibition": "inconclusive: -30.8%"},
      {"smiles": "CC(=O)N1CCN(C(=O)c2cccc(S(=O)(=O)N3CCOCC3)c2)CC1", "lipid storage change, negative = inhibition": "inconclusive: 1.96%"},
      {"smiles": "CCCOc1ccc(-c2nc(N3CCN(CC)CC3)c3ccccc3n2)cc1", "lipid storage change, negative = inhibition": "inconclusive: 284%"},
      {"smiles": "COc1ccc(CNC(=O)c2cccc(S(=O)(=O)N3CCN(c4ccc(F)cc4)CC3)c2)cc1", "lipid storage change, negative = inhibition": "inconclusive"},
      {"smiles": "Cc1[nH]c2ccccc2c1C(=O)COC(=O)c1ccc([N+](=O)[O-])s1", "lipid storage change, negative = inhibition": "inconclusive: -56%"},
      {"smiles": "COc1cc(/C=N/NC(=O)CCN2CCN(c3ccccc3)CC2)cc(OC)c1OC", "Potency": "inconclusive: 6.51 µM [falling, single point]"},
      {"smiles": "CC1CCN(CCCCOc2ccc(C(=O)c3ccccc3)cc2)CC1", "lipid storage change, negative = inhibition": "inconclusive: 1.02%"},
      {"smiles": "O=C(C1CCC(CNc2nc(=S)[nH]c3ccccc23)CC1)N1CCN(c2ccc(F)cc2)CC1", "note": "(centres undefined)", "lipid storage change, negative = inhibition": "inconclusive: 12.7%"},
      {"smiles": "Cc1cc(OCC(=O)N2CCCC2)ccc1Cl", "lipid storage change, negative = inhibition": "inconclusive: 44.5%"},
      {"smiles": "COc1ccc(-n2c(N)cc(=O)nc2SCC(=O)N2CCN(c3ccccc3)CC2)cc1", "lipid storage change, negative = inhibition": "inconclusive: 98.6%"},
      {"smiles": "Cc1cc(Br)ccc1NC(=O)CN(C)C(=O)c1ccc2ccccc2n1", "Potency": "inconclusive: 18.4 µM [activator, partial curve]"},
      {"smiles": "COc1cccc2c1Oc1ncccc1N(C(=O)CCC(=O)NCc1ccccc1F)C2", "Potency": "inconclusive: 29.1 µM [activator, single point]"},
      {"smiles": "O=C(CC1SC(=Nc2ccccc2F)N(CCN2CCOCC2)C1=O)Nc1ccc(F)cc1F", "note": "(centres undefined)", "lipid storage change, negative = inhibition": "inconclusive: 4.66%"},
      {"smiles": "Cc1ccccc1C(=O)N1CCN(c2ccc(NC(=O)Cc3ccccc3)cc2)CC1", "lipid storage change, negative = inhibition": "inconclusive: 51.2%"},
      {"smiles": "O=C1NCCCC1C(=O)N1CCCCC1", "note": "(centres undefined)", "lipid storage change, negative = inhibition": "inconclusive: 6.46%"},
      {"smiles": "NC(=O)CCN(C(=O)c1cccc(S(=O)(=O)N2CCc3ccccc32)c1)c1ccccc1", "Potency": "inconclusive: 7.31 µM [falling, partial curve, poor fit]"},
      {"smiles": "CN(C(=O)c1ccc(NC(=O)Cc2cccc(NC(=O)C3CCN(C(=O)CCc4ccccc4)CC3)c2)cc1)C1CCCC1", "Potency": "inconclusive: 0.0058 µM [falling, full curve, poor fit]"},
      {"smiles": "Nc1cccc(C(=O)NCCNC(=O)c2cccc(N)c2)c1", "lipid storage change, negative = inhibition": "inconclusive: 75.5%"},
      {"smiles": "CCC1(CC)Cc2ccccc2C2=C(C(=O)N3CCCCC3)C(=O)C(=O)N21", "Potency": "inconclusive: 6.51 µM [falling, single point]"},
      {"smiles": "COC(=O)c1ccc(NC(=O)c2cccc(NC(=O)c3ccco3)c2)cc1", "Potency": "inconclusive: 18.4 µM [falling, single point]"},
      {"smiles": "Cc1ccc(S(=O)(=O)N2CCCCC2CCNC(=O)C(=O)NCc2ccccc2C)cc1", "note": "(centres undefined)", "Potency": "active: 9.2 µM"},
      {"smiles": "CN(CCOc1ccccc1Cl)Cc1ccccc1", "Potency": "active: 23.1 µM"},
      {"smiles": "O=C(CCCc1c[nH]c2ccccc12)Nc1ncccc1O", "Potency": "inconclusive: 29.1 µM [activator, single point]"},
      {"smiles": "COc1ccc(/C=C(/C#N)C(=O)Nc2cccc([N+](=O)[O-])c2)cc1C(=O)O", "lipid storage change, negative = inhibition": "inconclusive: 22.2%"},
      {"smiles": "CC(C)(Oc1cccc2ccccc12)C(=O)O", "Potency": "inconclusive: 0.58 µM [falling, full curve, poor fit]"},
      {"smiles": "Cc1csc2c(N3CCN(C(=S)Nc4ccc(C(F)(F)F)cc4)CC3)ncnc12", "lipid storage change, negative = inhibition": "inconclusive: 4.75%"},
      {"smiles": "O=S(=O)(/N=C(\\Sc1ccc(Cl)cc1)c1ccccc1)c1ccccc1", "lipid storage change, negative = inhibition": "inconclusive: 12.8%"},
      {"smiles": "COc1cc(S(=O)(=O)NCc2cccnc2)c(OC)cc1Br", "lipid storage change, negative = inhibition": "inconclusive: 24%"}
    ]}
  ]
}
